Experimental data as given in PubChem BioAssay AID330 (DTP/NCI, 2004).
The list does not hold the whole screen: it is rich in T/C values a quarter to a half above the control, in often repeated tests (any T/C) and in doses without a T/C. Further doses and runs are listed elsewhere. T/C is the treated group as % of the vehicle group. Some doses have a count of surviving animals in place of a T/C: the source holds a T/C of zero for them, seemingly a mark for toxic or unscored doses. Some doses without a T/C left all or most animals alive at the check, yet need not have been tolerated: survival well below the control is almost never listed, so the zero probably covers shortened survival too. Survivors were counted at the toxicity check, usually on the fifth day, unless a day is given; later deaths do not show. Schedule codes are those of the source, taken here to give the interval after Q, in days (D) or hours (H), and the number of doses after X. For survival time, this PubChem deposit counts one and a half times the control or more as active, and values a quarter to a half above the control carry no call in these data; other NCI protocols may use other cut-offs. Some entries hold several experiments; the results are listed from low to high. Some T/C values carry the count of animals alive at the toxicity check (mostly the fifth day); without a count, all were alive then.

System: P388 leukemia ip, CD2F1 mice, survival T/C
Experiment: NCI In Vivo Anticancer Drug Screen. Data for tumor model P388 Leukemia (intraperitoneal) in CD2F1 (CDF1) mice
Details: T/C endpoint: median survival time, higher T/C = longer survival
[1] = dose: 200.0 mg/kg/injection, schedule: Q01DX005 (ip), vehicle: saline with Tween-80
[2] = dose: 2.0 mg/kg/injection, schedule: Q01DX005 (ip), vehicle: Klucel (hydroxypropylcellulose) (HPC)
[3] = dose: 4.0 mg/kg/injection, schedule: Q01DX005 (ip), vehicle: Klucel (hydroxypropylcellulose) (HPC)
[4] = dose: 240.0 mg/kg/injection, schedule: Q01DX005 (ip), vehicle: saline
[5] = dose: 100.0 mg/kg/injection, schedule: Q01DX009 (ip), vehicle: saline
[6] = dose: 200.0 mg/kg/injection, schedule: Q01DX009 (ip), vehicle: saline
[7] = dose: 50.0 mg/kg/injection, schedule: Q01DX009 (ip), vehicle: saline with Tween-80
[8] = dose: 200.0 mg/kg/injection, schedule: Q01DX009 (ip), vehicle: saline with Tween-80
[9] = dose: 200.0 mg/kg/injection, schedule: Q01DX005 (ip), vehicle: saline

Cc1cc2c(cc1C)C(=O)c1c(C)ccc(C)c1C2=O
survivor count (dose: 100.0 mg/kg/injection, schedule: Q01DX005 (ip), vehicle: saline with Tween-80): 5 of 5
survivor count [1]: 5 of 5

CCOP(=O)(O)C1CCCC(C)[N-]1.CCOP(=O)(O)C1CCCC(C)[N-]1.[Ni+2] (stereo unspecified)
survivor count (dose: 100.0 mg/kg/injection, schedule: Q04DX003 (ip), vehicle: Klucel (hydroxypropylcellulose) (HPC)): 1 of 6
survivor count (dose: 200.0 mg/kg/injection, schedule: Q04DX003 (ip), vehicle: Klucel (hydroxypropylcellulose) (HPC)): 0 of 6
survivor count (dose: 400.0 mg/kg/injection, schedule: Q04DX003 (ip), vehicle: Klucel (hydroxypropylcellulose) (HPC)): 0 of 6

CC(=O)OCN(C)N=Nc1ccc(C(C)=O)cc1
survivor count (dose: 480.0 mg/kg/injection, schedule: Q01DX005 (ip), vehicle: Klucel (hydroxypropylcellulose) (HPC)): 0 of 6

C=C1C(=O)O[C@H]2C[C@@H]3O[C@@H]3[C@@H]12
survivor count (dose: 25.0 mg/kg/injection, schedule: Q01DX009 (ip), vehicle: water): 0 of 6

C/C=C(\C)C(=O)OC1C(C)=C2C(C1OC(=O)CCCCC)C(C)(OC(C)=O)CC(OC(=O)CCC)C1(O)C2OC(=O)C1(C)O (stereo unspecified)
T/C (dose: 1.0 mg/kg/injection, schedule: Q01DX005 (ip), vehicle: Klucel (hydroxypropylcellulose) (HPC)): 128 [5 of 6 alive] and 130 % of control
T/C [2]: 127 % of control
survivor count [2]: 6 of 6
T/C [3]: 135 % of control
survivor count [3]: 0 of 6
survivor count (dose: 8.0 mg/kg/injection, schedule: Q01DX005 (ip), vehicle: Klucel (hydroxypropylcellulose) (HPC)): 0 of 6

O=C(O)c1cocc1C(=O)O
survivor count [4]: 6 of 6

CCCCCCCCCCCCCCCC[N+]1(CC)CCCCCC1
survivor count (dose: 0.04 mg/kg/injection, schedule: Q01DX009 (ip), vehicle: saline): 6 of 6
survivor count (dose: 0.19 mg/kg/injection, schedule: Q01DX009 (ip), vehicle: saline): 0 of 6
survivor count (dose: 0.39 mg/kg/injection, schedule: Q01DX009 (ip), vehicle: saline): 6 of 6
survivor count (dose: 0.78 mg/kg/injection, schedule: Q01DX009 (ip), vehicle: saline): 2 of 6
survivor count (dose: 1.56 mg/kg/injection, schedule: Q01DX009 (ip), vehicle: saline): 3 of 6
survivor count (dose: 3.12 mg/kg/injection, schedule: Q01DX009 (ip), vehicle: saline): 0 of 6
survivor count (dose: 6.25 mg/kg/injection, schedule: Q01DX009 (ip), vehicle: saline): 0 of 6
survivor count (dose: 12.5 mg/kg/injection, schedule: Q01DX009 (ip), vehicle: saline): 0 of 6
survivor count (dose: 50.0 mg/kg/injection, schedule: Q01DX009 (ip), vehicle: saline): 1 of 6
survivor count [5]: 0 of 6
survivor count [6]: 0 of 6

Nc1ccc(NCCCC2CCCN3CCCCC23)c2c(=O)c3ccccc3sc12 (stereo unspecified)
survivor count (dose: 400.0 mg/kg/injection, schedule: Q01DX005 (ip), vehicle: saline with Tween-80): 0 of 6

O=S(=O)(CCl)OCCCl
T/C [7]: 143 % of control
T/C (dose: 100.0 mg/kg/injection, schedule: Q01DX001 (ip), vehicle: saline with Tween-80): 131 % of control [5 of 6 alive]
survivor count (dose: 150.0 mg/kg/injection, schedule: Q01DX009 (ip), vehicle: saline with Tween-80): 0 of 6
survivor count (dose: 200.0 mg/kg/injection, schedule: Q01DX001 (ip), vehicle: saline with Tween-80): 1 of 6
survivor count (dose: 400.0 mg/kg/injection, schedule: Q01DX001 (ip), vehicle: saline with Tween-80): 0 of 6

COc1cc2c(c(OC)c1OC)-c1ccc(OC)c(=O)cc1C(=O)CC2
T/C (dose: 1.25 mg/kg/injection, schedule: Q01DX009 (ip), vehicle: Klucel (hydroxypropylcellulose) (HPC)): 125 and 133 % of control
T/C (dose: 2.5 mg/kg/injection, schedule: Q01DX009 (ip), vehicle: Klucel (hydroxypropylcellulose) (HPC)): 130 and 140 % of control
T/C (dose: 5.0 mg/kg/injection, schedule: Q01DX009 (ip), vehicle: Klucel (hydroxypropylcellulose) (HPC)): 149 % of control
survivor count (dose: 10.0 mg/kg/injection, schedule: Q01DX009 (ip), vehicle: Klucel (hydroxypropylcellulose) (HPC)): 6 of 6
survivor count (dose: 20.0 mg/kg/injection, schedule: Q01DX009 (ip), vehicle: Klucel (hydroxypropylcellulose) (HPC)): 3 of 6

CCn1c2ccccc2c2cc(N=Nc3ccnc4c(O)cccc34)ccc21
T/C [7]: 125 and 127 % of control
survivor count [8]: 6 of 6

N#Cc1c(N)nc2c(c1N)CC(CO)O2 (stereo unspecified)
survivor count [8]: 6 of 6

Cc1cccc(CNc2cccc(C)n2)n1
survivor count [9]: 0 of 6

Nc1c(Cl)c(Cl)c(Br)c(Cl)c1Cl
survivor count [8]: 6 of 6

O=c1c(O)cc2c(O)oc3c(=O)c(O)c(O)c4c(O)oc1c2c43
survivor count (dose: 400.0 mg/kg/injection, schedule: Q01DX009 (ip), vehicle: suspension in saline): 2 of 6

C(=N\NC1=NCCN1)/c1ccncc1
survivor count [9]: 0 of 6

CC(=O)OC(OC(C)=O)c1ccc([N+](=O)[O-])s1
survivor count (dose: 200.0 mg/kg/injection, schedule: Q01DX009 (ip), vehicle: Klucel (hydroxypropylcellulose) (HPC)): 4 of 6
survivor count (dose: 400.0 mg/kg/injection, schedule: Q01DX009 (ip), vehicle: Klucel (hydroxypropylcellulose) (HPC)): 1 of 6

O=C(Nc1ccc(NC(=O)Nc2cccc(C3=NCCCN3)c2)cc1)Nc1ccc(C2=NCCCN2)cc1
T/C (dose: 5.0 mg/kg/injection, schedule: Q01DX009 (ip), vehicle: saline with Tween-80): 131 % of control
T/C (dose: 6.6 mg/kg/injection, schedule: Q01DX009 (ip), vehicle: saline with Tween-80): 136 % of control
T/C (dose: 10.0 mg/kg/injection, schedule: Q01DX009 (ip), vehicle: saline with Tween-80): 136 and 140 % of control
T/C (dose: 15.0 mg/kg/injection, schedule: Q01DX009 (ip), vehicle: saline with Tween-80): 145 % of control
survivor count (dose: 20.0 mg/kg/injection, schedule: Q04DX003 (ip), vehicle: saline with Tween-80): 1 of 6
survivor count (dose: 100.0 mg/kg/injection, schedule: Q04DX003 (ip), vehicle: saline): 0 of 6
survivor count (dose: 200.0 mg/kg/injection, schedule: Q04DX003 (ip), vehicle: saline): 0 of 6
survivor count (dose: 400.0 mg/kg/injection, schedule: Q04DX003 (ip), vehicle: saline): 0 of 6

N=c1c2c(ncn1CCc1ccccc1)CCN(Cc1ccccc1)C2
survivor count (dose: 80.0 mg/kg/injection, schedule: Q01DX009 (ip), vehicle: saline with Tween-80): 1 of 6

CC(C)N1C(=O)C(C#N)=C(c2ccccc2)SC1c1ccccc1 (stereo unspecified)
survivor count (dose: 25.0 mg/kg/injection, schedule: Q01DX009 (ip), vehicle: saline with Tween-80): 6 of 6

CC(=O)Nc1ccc(Cl)cc1C(O)c1ccccc1 (stereo unspecified)
survivor count (dose: 100.0 mg/kg/injection, schedule: Q01DX005 (ip), vehicle: Klucel (hydroxypropylcellulose) (HPC)): 1 of 6
survivor count (dose: 200.0 mg/kg/injection, schedule: Q01DX005 (ip), vehicle: Klucel (hydroxypropylcellulose) (HPC)): 0 of 6

C1CCC(CCCCc2nn[nH]n2)CC1
survivor count [1]: 2 of 5

c1ccc2c(CC3=NCCN3)noc2c1
survivor count [5]: 0 of 6
survivor count [6]: 0 of 6

CN(C)c1ccc(N=Nc2ccccc2)cc1
survivor count (dose: 125.0 mg/kg/injection, schedule: Q01DX009 (ip), vehicle: saline with Tween-80): 6 of 6

Cc1ccc(/C=C/C(=O)C(C)CN(C)C)cc1 (stereo unspecified)
survivor count [4]: 1 of 6
survivor count (dose: 480.0 mg/kg/injection, schedule: Q01DX005 (ip), vehicle: saline): 0 of 6
survivor count (dose: 960.0 mg/kg/injection, schedule: Q01DX005 (ip), vehicle: saline): 0 of 6

COc1cccc(CN2CCN(/N=C/c3c4c(O)c5c(O)c(C)c6c(c5c3O)C(=O)C(C)(O/C=C/C(OC)C(C)C(OC(C)=O)C(C)C(O)C(C)C(O)C(C)/C=C/C=C(C)C(=O)N4)O6)CC2)c1 (stereo unspecified)
survivor count [8]: 3 of 6

OC(/C=C/c1ccccc1)Cc1nc2ccccc2[nH]1 (stereo unspecified)
survivor count (dose: 240.0 mg/kg/injection, schedule: Q01DX005 (ip), vehicle: saline with Tween-80): 6 of 6
